# KR20200071421A, “왕귀뚜라미에서 유래한 항균 펩타이드 테레오그릴루신 3 및 그의 조성물” (대한민국(농촌진흥청장), priority 2018, dated 2020)
# Part of at least one peptide drawing is inferred or uncertain, most often the ends. Peptide text beside a SMILES is read from it.
# Tests used:
# Type in all cases: cell-based
# Details in all cases: Fig. 1; peptide 5 ㎕ per well at graded concentrations; activity increases concentration-dependently
# Staphylococcus aureus = test: Radial diffusion assay (RDA), antibacterial activity
# Escherichia coli 0-157 = test: as above
# Candida albicans = test: Radial diffusion assay (RDA), antifungal activity
structure (smiles),measurement,setting,value
"CC[C@H](C)[C@H](NC(=O)[C@H](Cc1ccccc1)NC(=O)[C@H](Cc1ccccc1)NC(=O)[C@H](CC(C)C)NC(=O)[C@H](CCCCN)NC(=O)[C@H](CC(N)=O)NC(=O)[C@H](CCCCN)NC(=O)[C@H](Cc1c[nH]c2ccccc12)NC(=O)[C@H](Cc1ccccc1)NC(=O)[C@@H](N)CCSC)C(=O)N[C@H](C(=O)N[C@@H](CCCCN)C(=O)N[C@@H](CCCCN)C(N)=O)C(C)C [Teleogryllusine 3, MFWKNKLFFIVKK-NH2] (H-MFWKNKLFFIVKK-NH2)","antibacterial activity against Gram-positive bacteria (clear zone, RDA)",Staphylococcus aureus,활성이 있음
same,"antibacterial activity against Gram-negative bacteria (clear zone, RDA)",Escherichia coli 0-157,활성이 있음
same,"antifungal activity (clear zone formation, RDA)",Candida albicans,클리어 존(clear zone)이 형성되어
